# The other results are listed elsewhere or left out.
# Molecular target: T1, OsSMF1 (Oryza sativa, UniProt Q6ZLB0 1-436)
# T1 sequence: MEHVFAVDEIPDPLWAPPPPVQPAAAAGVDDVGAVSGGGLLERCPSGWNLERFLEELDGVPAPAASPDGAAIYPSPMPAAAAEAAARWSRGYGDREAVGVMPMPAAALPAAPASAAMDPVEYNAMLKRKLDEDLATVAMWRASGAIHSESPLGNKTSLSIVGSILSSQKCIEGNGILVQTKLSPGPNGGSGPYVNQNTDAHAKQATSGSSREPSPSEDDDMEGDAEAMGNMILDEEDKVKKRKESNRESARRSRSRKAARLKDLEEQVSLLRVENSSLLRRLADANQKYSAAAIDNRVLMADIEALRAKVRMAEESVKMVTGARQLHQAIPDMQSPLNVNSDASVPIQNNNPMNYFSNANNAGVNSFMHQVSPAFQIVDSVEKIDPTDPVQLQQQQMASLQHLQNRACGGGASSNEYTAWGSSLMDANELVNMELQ
# Assay: protein-binding microarray (RPBM); PBS, 2% BSA, 51.3 ng/ul salmon testes DNA, 50 uM zinc acetate, 200 nM TF, 25 C, 1 h; high values mean tight binding
# Conditions: protein: recombinant; tags: N-terminal polyhistidine and DsRed monomer fusion (pET32a); chain copies: 2; label: CyDye5-dUTP incorporated in the synthesized complementary strand; 3' TTTTT single-stranded linker to array surface; dsDNA, one strand shown
# Procedure, shortened: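 Binding signal here means per-feature fluorescence intensity in arbitrary units. The values were read on an Axon 4000B scanner after a custom Agilent array, double-stranded by primer extension with Cy5-dUTP, was incubated with 200 nM protein at 25 °C for 1 h in PBS with 2% BSA, salmon testes DNA and 50 µM zinc acetate, then washed. The proteins were transcription factors with an N-terminal polyhistidine tag and DsRed, expressed in E. coli BL21-CodonPlus and purified on Ni–NTA.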
row,Sequence,binding signal
1,TAGCCGTTAGTGCCACGTGGCGCCTTCCCATTCGACCGCCCGGAGTCACCTAGTGCAG,40600 fluorescence intensity (a.u.)
2,ATTTTATGCTAGATGGTGACGTTACACGTGCCATTATTCACGGAGTCACCTAGTGCAG,10400 fluorescence intensity (a.u.)
3,AGAACCTTCCGCGCTTCCGTGCTCCCCACCGCCACCTCGCCGGAGTCACCTAGTGCAG,3430 fluorescence intensity (a.u.)
4,AGAAATCTGCAATGTGGGTTGGTGATGAAAATGGTGATGCCGGAGTCACCTAGTGCAG,6180 fluorescence intensity (a.u.)
5,TGGAAAGAATACAGTATGATATGGTCTTATTTTGTCTGCCCGGAGTCACCTAGTGCAG,41200 fluorescence intensity (a.u.)
6,ATATTTTATCATCATCAGCCGATTGCCTTTATATCATCATCGGAGTCACCTAGTGCAG,3140 fluorescence intensity (a.u.)
7,TTGCCCAGTTCCTCATTGACCAGCACATCAACTTTGATTGCGGAGTCACCTAGTGCAG,3820 fluorescence intensity (a.u.)
8,CTTTTGGATGCCAGCTCACAGCTCATCAATACATCACCATCGGAGTCACCTAGTGCAG,11200 fluorescence intensity (a.u.)
9,GACGCGTCGGTGCTGATTGACTCGACGGCCGGCAACGTGGCGGAGTCACCTAGTGCAG,3810 fluorescence intensity (a.u.)
10,AACATATCGTACGTATAGCAGCCCTCGAAAGAGTAGAGCCCGGAGTCACCTAGTGCAG,32000 fluorescence intensity (a.u.)
11,AGGCATGCATGCTCATGTCAGACGTGACGACTTGCAAAATCGGAGTCACCTAGTGCAG,4560 fluorescence intensity (a.u.)
12,GGATTTTGCGAGGTTTCCTCTTCCTCCACGCTCTCGAATCCGGAGTCACCTAGTGCAG,36300 fluorescence intensity (a.u.)
13,CCAACCAACATCCCACATCGAACCATGCATTATTTATGAACGGAGTCACCTAGTGCAG,17300 fluorescence intensity (a.u.)
14,TAGTAGCTTAATTGCTAGCTAGTGGTCACTGGTCAGTATACGGAGTCACCTAGTGCAG,4030 fluorescence intensity (a.u.)
15,TTTTATCAGCTGCTTGGATGTGCCACGTAGCACGAGGTGCCGGAGTCACCTAGTGCAG,14600 fluorescence intensity (a.u.)
16,ATCAACGGATGATCATTAGCACGAAGAAGATGACGTGGCTCGGAGTCACCTAGTGCAG,31800 fluorescence intensity (a.u.)
17,TTAGTATGAACAAAGGCCATGACCTGGAGGAGATAAAAGGCGGAGTCACCTAGTGCAG,3480 fluorescence intensity (a.u.)
18,GTTGGTTAATTTAGTGTTGTTGGTTGCTTGGCGACGTCATCGGAGTCACCTAGTGCAG,3860 fluorescence intensity (a.u.)
19,AACTGGGGTTTAATCCGCATCACCAAACACCCCTCCACTTCGGAGTCACCTAGTGCAG,4040 fluorescence intensity (a.u.)
20,TGGCGCTGACCTTGGCTACTTAGAGCCCGGCCGAGGCCGCCGGAGTCACCTAGTGCAG,30000 fluorescence intensity (a.u.)
21,ATATATATCTCCATCTCGAGTGCCTGGATCACATCAGCAACGGAGTCACCTAGTGCAG,3460 fluorescence intensity (a.u.)
22,TACTGTTGTTTGCATGTGTAAACAAATTCAAATGCATTAACGGAGTCACCTAGTGCAG,5410 fluorescence intensity (a.u.)
23,GCTGACGTCGGCATGACGTCAGCGCCCGATTTATGTGTAACGGAGTCACCTAGTGCAG,21200 fluorescence intensity (a.u.)
24,TCCTCGGCCGCAGTATCGTATCCGCACCTCCAGCTCAGTGCGGAGTCACCTAGTGCAG,3850 fluorescence intensity (a.u.)
25,CAGAAAAGACGCCGCTGATGTGGTGCTGGAAACGTGGGTGCGGAGTCACCTAGTGCAG,4180 fluorescence intensity (a.u.)
26,ACTCCAGTATGTATGAGTGTTGTGTTTGAGGGGTGTGTATCGGAGTCACCTAGTGCAG,4050 fluorescence intensity (a.u.)
27,CTACTAATTAGTAGTGCTGTGCATAAGCTCAGACTCAGGGCGGAGTCACCTAGTGCAG,3350 fluorescence intensity (a.u.)

row,Sequence,binding signal
1,AATAATTTCATAACTCGCCTGGAAACCACGTGACGAATCTCGGAGTCACCTAGTGCAG,4280 fluorescence intensity (a.u.)
2,TTTTGAGCTACCTTCTGGTGTTTTGACGTGTTATATTCATCGGAGTCACCTAGTGCAG,5140 fluorescence intensity (a.u.)
3,GTTTGGAATTTTGGATAGAAATTCCGGGCGTGACACATCGCGGAGTCACCTAGTGCAG,5880 fluorescence intensity (a.u.)
4,GCCAGCACTAGATGAGCTACCGCTGCCCTAGATGTTGGGTCGGAGTCACCTAGTGCAG,10300 fluorescence intensity (a.u.)
5,GCCTCTTCGTTCAAACTTCAAACCAAGCTTTGGCCTTTGGCGGAGTCACCTAGTGCAG,3400 fluorescence intensity (a.u.)
6,TACACGGGAAGCATACGTGCATACGATATGTTCCCAATGACGGAGTCACCTAGTGCAG,3290 fluorescence intensity (a.u.)
7,CTGTGCTTCTCCTCCGCGCTCCACATCACATCGCATCACCCGGAGTCACCTAGTGCAG,5050 fluorescence intensity (a.u.)
8,CAACGGCTATGAGCTGTCACACACTCACAGTAGTACTCCGCGGAGTCACCTAGTGCAG,3850 fluorescence intensity (a.u.)
9,TGCAATAATGCATTCTTAACGTCGAGTTGATGAATCAGCCCGGAGTCACCTAGTGCAG,3820 fluorescence intensity (a.u.)
10,ACATGTAGCACGAGCCGTTCCTTGTGCCACCCAGACGAATCGGAGTCACCTAGTGCAG,3420 fluorescence intensity (a.u.)
11,AGTTTTCTCCGAAAACAGATGACTGAGATTTGTTTAGGTACGGAGTCACCTAGTGCAG,22800 fluorescence intensity (a.u.)
12,CACTACCTGCATCTCCACGTCGCCGTCTCCATCAGATCATCGGAGTCACCTAGTGCAG,4830 fluorescence intensity (a.u.)
13,AGACTCCACTGATTATCAGCCTCCTACCCCTACCTGTCAACGGAGTCACCTAGTGCAG,3240 fluorescence intensity (a.u.)
14,CTGGGCTTAATAATCTTCTTCCTCTTGTTCTTCTATAAGTCGGAGTCACCTAGTGCAG,3310 fluorescence intensity (a.u.)
15,GCCGCCACGCGTCGCAGTGCCTCCTCCACCTTCCTCGTCACGGAGTCACCTAGTGCAG,5530 fluorescence intensity (a.u.)
16,ATCTGAACACTGAATTATCGCCACGGATTATTTGGTCCATCGGAGTCACCTAGTGCAG,3190 fluorescence intensity (a.u.)
17,CTATCTTCCGTTCCACCCGCTCCCGTTGAGCTCAATTATCCGGAGTCACCTAGTGCAG,4720 fluorescence intensity (a.u.)
18,AATAAGTTGTAGACTGACTAATCACCCCTCTTCTCCCGAACGGAGTCACCTAGTGCAG,3510 fluorescence intensity (a.u.)
19,ATTTTGATCATAAAGCTTGATCATTTATCATATTTAAAAGCGGAGTCACCTAGTGCAG,19400 fluorescence intensity (a.u.)
20,CTTAACGGCCTGCTGATAGCATAATGAGCCTTAGAAAATTCGGAGTCACCTAGTGCAG,3880 fluorescence intensity (a.u.)
21,TGCAAAGTTTATACACGTGTATATAAAGTTTGTATATGTGCGGAGTCACCTAGTGCAG,12900 fluorescence intensity (a.u.)
22,CGACCGAGCGAGGAGGGGCGGCGCCGTTCTGCTGGGCATCCGGAGTCACCTAGTGCAG,7440 fluorescence intensity (a.u.)
23,TTCATCTGTTTAGATCTCAGTGTGTTTTCGAAATTTTAACCGGAGTCACCTAGTGCAG,30800 fluorescence intensity (a.u.)
24,AGTACTACCTTCATCTCTGACTCATAGCAATATACATACACGGAGTCACCTAGTGCAG,5390 fluorescence intensity (a.u.)
25,AGGCCAACAACAGCCAAATGCCACCTAGGGTGTTGCTTGCCGGAGTCACCTAGTGCAG,4150 fluorescence intensity (a.u.)
26,CCATGGCCTCGCATGAGTCACTGACGTGTGTGGTGGTGCACGGAGTCACCTAGTGCAG,6580 fluorescence intensity (a.u.)
27,TAGGTCTTCGTCCCACGTGGCATTGACGTGGCGCTTACGCCGGAGTCACCTAGTGCAG,30000 fluorescence intensity (a.u.)

# Some values from the entries so far.
# binding signal with ATTTTGATCATAAAGCTTGATCATTTATCATATTTAAAAGCGGAGTCACCTAGTGCAG is entered as 19400 fluorescence intensity (a.u.)
# binding signal with AACTGGGGTTTAATCCGCATCACCAAACACCCCTCCACTTCGGAGTCACCTAGTGCAG is entered as 4040 fluorescence intensity (a.u.)

# — article PMC7819943, “Rice protein-binding microarrays: a tool to detect cis-acting elements near promoter regions in rice”
